The campaign covered roughly 27,000 compounds. About 120 (0.44%) were called active. Inconclusive results, whose numbers are uncertain, are shown with a selection of clear calls. Rule as the data show it: active = inhibition above about 20%; inconclusive = no clear call, values can overlap the other calls; inactive = below that.
Target: Serine/threonine-protein kinase 33 (Homo sapiens) (UniProt Q9BYT3)
Test: STK33 kinase inhibitors, primary screen, biochemical, luminescence, ADP-Glo, MBP substrate (AID 2322)
Conditions: at 12.5 µM, hits give high values

The chains behind the UniProt entries cited, without tags or fusion partners. Where a name states a change or a piece, a line headed by the entry shows the natural chain unless it says otherwise.
UniProt Q9BYT3: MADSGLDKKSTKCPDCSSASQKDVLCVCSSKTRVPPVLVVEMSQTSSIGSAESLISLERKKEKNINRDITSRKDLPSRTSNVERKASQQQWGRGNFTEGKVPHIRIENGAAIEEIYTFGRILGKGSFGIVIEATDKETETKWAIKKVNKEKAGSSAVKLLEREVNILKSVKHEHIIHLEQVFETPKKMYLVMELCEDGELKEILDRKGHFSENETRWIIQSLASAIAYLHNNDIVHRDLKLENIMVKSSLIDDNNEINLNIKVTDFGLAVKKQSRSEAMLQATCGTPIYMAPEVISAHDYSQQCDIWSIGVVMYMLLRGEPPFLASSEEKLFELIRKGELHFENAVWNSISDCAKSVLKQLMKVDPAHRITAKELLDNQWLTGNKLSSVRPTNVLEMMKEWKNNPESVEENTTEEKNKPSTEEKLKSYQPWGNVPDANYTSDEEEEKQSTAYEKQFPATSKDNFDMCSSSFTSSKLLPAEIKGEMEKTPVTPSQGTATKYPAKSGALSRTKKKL

Question: Which inhibition does the source give for COc1cc2ncnc(Nc3cccc(O)c3)c2cc1OC here?
Answer: active: 43%

Question: How did the inhibition turn out when O=S1(=O)NC(=NCCCCO)c2ccccc21 was run?
Answer: inactive: -0.324%

Question: For COc1cccc(-c2cnc3c(c2)C(=O)N([C@H](C)CO)C[C@H](C)[C@H](CN(C)C(=O)Nc2cccc4ccccc24)O3)c1, which inhibition is on record?
Answer: inconclusive: 10.8%

Question: Which inhibition does the source give for Nc1cccc(-c2cc3c(Oc4cccc(O)c4)ncnc3[nH]2)c1 here?
Answer: active: 69.3%

Question: C[C@H]1CN([C@@H](C)CO)C(=O)CCCn2nncc2CO[C@H]1CN(C)C(=O)Nc1ccc(C(F)(F)F)cc1 was tested. Which inhibition did it give?
Answer: inconclusive: 21.9%

Question: Which inhibition does the source give for CCOC(=O)c1c(NC(=O)c2nn(CC)cc2Br)c(C#N)nn1-c1ccccc1 here?
Answer: inconclusive: 24.7%

Question: Which inhibition does the source give for Cn1c(=O)c2c(ncn2CC(=O)NCc2ccccc2Cl)n(C)c1=O here?
Answer: inconclusive: 17.1%

Question: Which inhibition does the source give for Cn1cc(C2=C(c3cn(CCCSC(=N)N)c4ccccc34)C(=O)NC2=O)c2ccccc21 here?
Answer: active: 106%

Question: For COc1cc(O)c(C(=O)/C=C/c2ccc(O)c(OC)c2)c(OC)c1, which inhibition is on record?
Answer: active: 51%

Question: How did the inhibition turn out when Cc1ccc2nc(S/C=C/C(=O)c3ccccc3)[nH]c2c1 was run?
Answer: inconclusive: 13.9%

Question: With Oc1cc(O)cc(/C=C/c2ccc(O)c(O)c2)c1 as the compound, how does the inhibition read?
Answer: active: 73.9%

Question: C=C1CC[C@@]2(OC1)O[C@H]1CC3[C@@H]4CC=C5C[C@H](O[C@@H]6OC[C@H](O)[C@H](O)[C@H]6O[C@@H]6O[C@@H](C)[C@H](O)[C@@H](O)[C@H]6O)C[C@@H](O)[C@]5(C)C4CC[C@]3(C)[C@H]1[C@@H]2C (some centres not stated) was tested. Which inhibition did it give?
Answer: inactive: -4.38%

Question: How did the inhibition turn out when C[C@@H]1CN([C@H](C)CO)C(=O)Cc2cc(NC(=O)Cc3ccccc3)ccc2O[C@@H]1CN(C)Cc1ccc(Cl)c(Cl)c1 was run?
Answer: inactive: 3.35%

Question: How did the inhibition turn out when COC(=O)C(CC#Cc1ccc2c(c1)[C@]1(C(=O)N2)[C@H](C(=O)N2CCCCCCC2)[C@H]2C(=O)O[C@H](c3ccccc3)[C@H](c3ccccc3)N2[C@@H]1c1ccc(OCCO)cc1)C(=O)OC was run?
Answer: inconclusive: 21.7%

Question: COc1ccc([Si](C)(C)[C@@H]2[C@@H](CCO)O[C@]3(C(=O)N(Cc4ccc(NC(=O)[C@H](C)O)cc4)c4ccccc43)[C@H]2C)cc1 was tested. Which inhibition did it give?
Answer: inconclusive: 19%

Question: With O=C(CSc1n[nH]c(-c2ccncc2)n1)Nc1cccc(Cl)c1Cl as the compound, how does the inhibition read?
Answer: inactive: -5.47%

Question: Which inhibition does the source give for CS(=O)(=O)N(CC(=O)Nc1cc(Cl)ccc1Cl)c1cc(Cl)c(Cl)cc1Cl here?
Answer: inconclusive: 15.6%

Question: Which inhibition does the source give for COc1ccc([Si](C)(C)[C@H]2[C@H](CCO)O[C@@]3(C(=O)N(Cc4cccc(N5CCC5=O)c4)c4ccccc43)[C@@H]2C)cc1 here?
Answer: inconclusive: 19.8%

Question: How did the inhibition turn out when Cc1ccc(NC(=O)CSc2nnc(-c3ccncc3)n2C)c(Br)c1 was run?
Answer: inactive: -4.86%

Question: Which inhibition does the source give for COC(=O)[C@]1(Cc2ccccc2CN=[N+]=[N-])N=C(c2ccc(OCCCO)cc2)O[C@@H]1c1ccccc1CN=[N+]=[N-] here?
Answer: inconclusive: 18.9%

Question: How did the inhibition turn out when COC(=O)C(CC#Cc1ccc2c(c1)[C@]1(C(=O)N2)[C@H](c2ccc(OCCO)cc2)N2[C@H](c3ccccc3)[C@H](c3ccccc3)OC(=O)[C@H]2[C@@H]1C(=O)N1CCCCCCC1)C(=O)OC was run?
Answer: inconclusive: 20%

Question: COc1ccc(S(=O)(=O)N(C)C[C@@H]2OCCCC[C@@H](C)Oc3ccc(NC(=O)Nc4ccc5c(c4)OCO5)cc3C(=O)N([C@H](C)CO)C[C@@H]2C)cc1 was tested. Which inhibition did it give?
Answer: inconclusive: 15.3%

Question: How did the inhibition turn out when O=C(COc1ccccc1[N+](=O)[O-])Nc1cccc2ncccc12 was run?
Answer: inconclusive: 19.1%

Question: CC(C)COC(=O)N(C)C[C@@H]1OCc2cnnn2CCCC(=O)N([C@@H](C)CO)C[C@H]1C was tested. Which inhibition did it give?
Answer: inconclusive: 11.7%

Question: With CCn1c(SCC(=O)Nc2cc(C)c(Cl)cc2OC)nnc1-c1cccs1 as the compound, how does the inhibition read?
Answer: inactive: -0.806%

Question: How did the inhibition turn out when O=C1O[C@H](c2ccccc2)[C@H](c2ccccc2)N2[C@H]1[C@@H](C(=O)O)[C@]1(C(=O)Nc3ccc(C#CC4(O)CCCCCC4)cc31)[C@H]2c1ccc(OCCO)cc1 was run?
Answer: inconclusive: 19%

Question: With CC(C)=CCc1c(O)cc(O)c2c(=O)cc(-c3ccc(O)cc3)oc12 as the compound, how does the inhibition read?
Answer: inconclusive: 22.2%

Question: Which inhibition does the source give for CCOC(=O)c1c(NC(=O)CCN2CCC(C)CC2)sc2c1CC(C)(C)OC2 here?
Answer: inconclusive: 8.84%

Question: Which inhibition does the source give for COc1cc([N+](=O)[O-])ccc1NC(=O)CN(C)S(=O)(=O)c1ccc2ccccc2c1 here?
Answer: inactive: -2.27%

Question: How did the inhibition turn out when C[C@@H]1CN([C@@H](C)CO)C(=O)CCCn2cc(nn2)CO[C@@H]1CN(C)C(=O)Nc1ccccc1F was run?
Answer: inconclusive: 5.74%

Question: How did the inhibition turn out when CCC(Oc1cccc(NC(=O)c2cccc(OC)c2)c1)C(=O)c1ccccc1 (configuration not stated) was run?
Answer: inconclusive: 11.5%

Question: For NC(=O)NCC#Cc1ccc2c(c1)[C@]1(C(=O)N2)[C@H](C(=O)Nc2nc3ccccc3s2)[C@H]2C(=O)O[C@H](c3ccccc3)[C@H](c3ccccc3)N2[C@@H]1c1ccccc1OCCO, which inhibition is on record?
Answer: inconclusive: 17%

Question: With O=C(CSc1nc2ccccc2c(=O)n1Cc1ccco1)c1ccc(Br)cc1 as the compound, how does the inhibition read?
Answer: inactive: 0.326%

Question: Which inhibition does the source give for C[C@H]1CN([C@@H](C)CO)C(=O)CCCn2cc(nn2)CO[C@H]1CN(C)S(=O)(=O)c1cccs1 here?
Answer: inconclusive: 12.7%

Question: O=C1c2cccc(O)c2C(=O)c2c(O)cccc21 was tested. Which inhibition did it give?
Answer: active: 27.4%

Question: How did the inhibition turn out when Cc1[nH]c2ccccc2c1C(=O)CSc1nc2scc(-c3ccco3)c2c(=O)n1-c1ccccc1 was run?
Answer: inactive: -1.26%

Question: With OCCCNc1ncnc2oc(-c3ccccc3)c(-c3ccccc3)c12 as the compound, how does the inhibition read?
Answer: active: 31.8%

Question: How did the inhibition turn out when Cc1nc(SCC(=O)n2c3c(c4ccccc42)CCCC3)n[nH]1 was run?
Answer: inconclusive: 14.3%

Question: Which inhibition does the source give for COc1ccc(CCNc2ncnc3nc[nH]c23)cc1OC here?
Answer: inconclusive: 16.1%

Question: With COc1ccc([Si](C)(C)[C@H]2[C@H](CCn3cc(CCO)nn3)O[C@@]3(C(=O)N(Cc4ccc(N5CCOC5=O)cc4)c4ccccc43)[C@@H]2C)cc1 as the compound, how does the inhibition read?
Answer: inconclusive: 21.1%

Question: How did the inhibition turn out when C=C(C)C(=O)O[C@H]1[C@H]2C(=C)C(=O)O[C@@H]2C[C@@H](C)/C=C/C(=O)[C@](C)(O)[C@@H]1OC(C)=O was run?
Answer: inactive: 3.93%

Question: How did the inhibition turn out when CCOC(=O)c1sc2ncn(CC(=O)Nc3cccc(Br)c3)c(=O)c2c1C was run?
Answer: inactive: -1.85%

Source: PubChem BioAssay AID2322 (Broad Institute, 2010)
